Reference: patent US20160046678A1 (ZYNGENIA, published 2016)
Results are given in words; binding and its absence hold for the method and conditions named. Some entries that bind do so weakly or less than the wild type.

Sequences of proteins named here, by UniProt entry; tags and fusion partners are left off. Residues count along the entry.
UniProt P05231, residues 30-212: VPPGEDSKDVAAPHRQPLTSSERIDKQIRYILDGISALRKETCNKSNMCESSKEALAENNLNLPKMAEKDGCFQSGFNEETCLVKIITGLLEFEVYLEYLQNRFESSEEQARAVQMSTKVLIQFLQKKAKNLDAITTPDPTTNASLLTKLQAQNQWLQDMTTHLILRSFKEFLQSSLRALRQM

What follows are binders tested against IL6 (UniProt P05231) (assay: MRD identification, Example 48).

Binder	binding
MVFWDEFCSWDPLLMACR [ILB247]	binds
VHFNCAWDPLMMRCNYDL [ILB228]	binds
FSSVTSACAWDPLIMRCI [ILB268]	binds
WLSTCLWDPLLMQCIESE [ILB263]	binds
SSFTVVSCMWDPLLMSCM [ILB245]	binds
ITSLERSCMWDPLLMLCS [ILB260]	binds
FEAWCVWDPLLMNCVTYT [ILB254]	binds
FTIGGPICGWDPLLMRCV [ILB234]	binds
TKNVTYECMWDPLLMVCT [ILB270]	binds
ALALVASVTGTRYQCRV [ILB269]	binds
YLSSCLWDPLLMRCTKLM [ILB265]	binds
RSSADWSCLWDPLLMQCM [ILB259]	binds
WSSGLYGCYWDPLLMLCK [ILB258]	binds
LRHFVQYCPWDPLLMACI [ILB233]	binds
MMMECHWDPLLMRCQNPK [ILB241]	binds
NRYERFMCFWDPLLMMCS [ILB255]	binds
RMSTCLWDPLLMNCKSLW [ILB229]	binds
SYIGYTYCPWDPLTMRCV [ILB232]	binds
SVSWCFWDPLVMQCKDHT [ILB226]	binds
FSQMCGWDPLLMMCRSVN [ILB237]	binds
PFYEYTCCPWDPLLMNCL [ILB271]	binds
MVFYCYWDPLLMLCHDQT [ILB250]	binds

Binder	binding
WSYFNRSCAWDPLLMKCA [ILB244]	binds
QNVNCLWDPLRMNCVEYK [ILB231]	binds
STVGCFWDPLLMDCRSMV [ILB262]	binds
TFTSCSWDPLLMDCTDFV [ILB249]	binds
SGVSCFWDPLRMICYILP [ILB264]	binds
YIPPCHWDPLLMDCAQIQ [ILB240]	binds
LSLLCHWDPLIMRCSYDS [ILB239]	binds
APQQCNWDPLLMNCVKYV [ILB266]	binds
NQLSSIMCHWDPLLMTCQ [ILB248]	binds
SYVTFLSCHWDPLRMQCI [ILB267]	binds
LLTKYRTCHWDPLLMLCR [ILB246]	binds
VGSDCMWDPLMMNCRYSY [ILB238]	binds
LLCSENWCRWDPLMMSCR [ILB236]	binds
VIMNQFFCFWDPLLMRCM [ILB256]	binds
KDYFHQYCIWDPLTMNCA [ILB272]	binds
TSEPCFWDPLLMTCDYGS [ILB230]	binds
MHGYCTWDPLLMRCSNYI [ILB261]	binds
ISMPCSWDPLLMNCAKWP [ILB253]	binds
FSSAYSGCYWDPLLMECI [ILB257]	binds
LVPPLFACFWDPLLMNCS [ILB243]	binds
QVSLCFWDPLMMTCSVPF [ILB252]	binds
LPSSCYWDPLLMECSHRN [ILB242]	binds

Second part, the binder after the results:

binding	Binder
binds	FHESLLPCFWDPLLMTCQ [ILB295]
binds	PRFLIYFCNWDPLLMMCK [ILB282]
binds	WEHGCMWDPLLMQCINRS [ILB298]
binds	AVGWCPWDPLLMNCMGRN [ILB274]
binds	QSNDCAWDPLLMQCLNSL [ILB287]
binds	LYMICTWDPLLMDCREDR [ILB296]
binds	DWEECVWDPLLMMCGISY [ILB278]
binds	LHLGEWDCYWDPLLMICR [ILB293]
binds	VASVCLWDPLLMQCWSHY [ILB275]
binds	QRNYSEFCHWDPLLMLCQ [ILB279]
binds	MTSHCLWDPLLMVCVNHE [ILB288]
binds	HFTFCAWDPLLMQCGIDS [ILB289]
binds	ALVNRVECSWDPLLMKCS [ILB280]
binds	DGMICLWDPIRMDCYYTE [ILB276]
binds	DFTFCAWDPLLMACNDQF [ILB277]
binds	YYPITLDCHWDPLLMRCL [ILB283]
binds	HYTNCVWDPLLMRCYEFA [ILB273]
binds	FSGKQMMCAWDPLMMQCA [ILB292]
binds	KSTALITCIWDPLLMQCR [ILB290]
binds	NLDVTPYCYWDPLRMVCY [ILB281]
binds	YTNNMETCAWDPLLMMCY [ILB291]
binds	YIEINHPCHWDPLLMDCT [ILB284]
binds	FDTFCFWDPLLMDCAAPT [ILB286]
binds	LNLLCAWDPLLMSCIETL [ILB297]
binds	LVDVCSWDPLLMNCRLAN [ILB285]
binds	WLFNGVDCLWDPLLMDCI [ILB294]
